# Reference: PMC12392863, “Natural Design of a Stabilized Cross‐β Fold: Structure of the FuA FapC from Pseudomonas Sp. UK4 Reveals a Critical Role for Stacking of Imperfect Repeats” (Advanced Materials (Deerfield Beach, Fla.), 2025)
# Results are given in words; binding and its absence hold for the method and conditions named.
# Tests used:
# Experiment in all cases: ThT fluorescence fibrillation kinetics; self-assembly into amyloid without seeds; 15 µM FapC (wt or mutant; wt also 1-15 µM), 50 mM Tris/HCl pH 7.4, 40 µM ThT, 37 °C, no shaking, followed for 120 h; both purified
# [1] = biological target: FapC UK4 Asn218Ala (Pseudomonas sp. UK4) (UniProt P0DXF5)
# [2] = biological target: FapC UK4 Gly84Pro (Pseudomonas sp. UK4) (UniProt P0DXF5)
# [3] = biological target: FapC UK4 Asn62Ala (Pseudomonas sp. UK4) (UniProt P0DXF5)
binder,measurement,setting,value
"FapC UK4 Asn218Ala (protein, UniProt P0DXF5 25-250) GPAEKWKPTPAPTGTVAAAVTDTQVSKDNKFDDTKTLNNAGANGSLSNSKGNLGANIAAGSGNQQDNAAAITSSAGDAATVFAVADIYQESKDNKFTNKGTQNNALLNNSANNSSGNVGVNVAAGQGNQQKNNLAIVTADGKNVAAASNTEQVSLDNHFLNEASSKHSYKPQYVVNNAGLLNSANNASGNIGVAVAAGAGNQQSNTLTLGSGCTVCAAGTGSKLAF",binding,[1],"no binding (tested: 15 µM, 120 h)"
"FapC UK4 Gly84Pro (protein, UniProt P0DXF5 25-250) GPAEKWKPTPAPTGTVAAAVTDTQVSKDNKFDDTKTLNNAGANGSLSNSKGNLGANIAAPSGNQQDNAAAITSSAGDAATVFAVADIYQESKDNKFTNKGTQNNALLNNSANNSSGNVGVNVAAGQGNQQKNNLAIVTADGKNVAAASNTEQVSLDNHFLNEASSKHSYKPQYVVNNAGLLNSANNASGNIGVNVAAGAGNQQSNTLTLGSGCTVCAAGTGSKLAF",binding,[2],"no binding (tested: 15 µM, 120 h)"
"FapC UK4 Asn62Ala (protein, UniProt P0DXF5 25-250) GPAEKWKPTPAPTGTVAAAVTDTQVSKDNKFDDTKTLANAGANGSLSNSKGNLGANIAAGSGNQQDNAAAITSSAGDAATVFAVADIYQESKDNKFTNKGTQNNALLNNSANNSSGNVGVNVAAGQGNQQKNNLAIVTADGKNVAAASNTEQVSLDNHFLNEASSKHSYKPQYVVNNAGLLNSANNASGNIGVNVAAGAGNQQSNTLTLGSGCTVCAAGTGSKLAF",binding,[3],"no binding (tested: 15 µM, 120 h)"
